From US20260035355A1, “COMPOUND, PHARMACEUTICAL COMPOSITION COMPRISING SAME, AND USE THEREOF” (SHENZHEN ZHONGGE BIOLOGICAL TECHNOLOGY CO., LTD., priority 2022, published 2026)

Assay: Evaluation of cell membrane permeability
Type: in vitro ADME
Conditions: transport buffer (HBSS+BSA), 37° C.
Description: The test compounds were diluted from 10 mM stock solutions to a concentration of 10 μM using the transport buffer (HBSS+BSA) and applied to the apical or basolateral side of the cell monolayer. After the incubation at 37° C., 5% CO2 and 95% relative humidity for 120 minutes, the permeability of the test compounds in the A to B direction or the B to A direction was dually determined. In addition, the efflux ratio (Papp B to A/Papp A to B) of each compound was determined. The test substances and reference substances were quantitatively analyzed by the LC-MS/MS method based on the analyte/IS peak area ratio.

Papp A→B at 120 min, 10 μM: 4.1 nm/s
Papp B→A at 120 min, 10 μM: 6.1 nm/s
Compound: CC(C)NCC(O)COc1ccc(CC(N)=O)cc1 (centres unmarked) [Atenolol]
